In the supplement of paper PMC12823440, “Inhibitors supercharge kinase turnover through native proteolytic circuits” (Nature, 2025):
The other results are listed elsewhere or left out. Hit calls seldom repeat between salt and free forms of one compound.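 Kinases, fused to nanoluciferase, were expressed in K562 cells; luminescence was measured every 4 h from 2 to 18 h as percent of control (DMSO = 100%, positive control = 0%). A time point is decreased if signal falls significantly (2 sigma). Hits were called by the authors by a rule that is not shown; the count of time points alone does not decide it.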

By UniProt entry, the sequences of proteins in these tests, tags left out. Where a name states a change or a piece, a line headed by the entry shows the natural chain unless it says otherwise.
UniProt Q00526: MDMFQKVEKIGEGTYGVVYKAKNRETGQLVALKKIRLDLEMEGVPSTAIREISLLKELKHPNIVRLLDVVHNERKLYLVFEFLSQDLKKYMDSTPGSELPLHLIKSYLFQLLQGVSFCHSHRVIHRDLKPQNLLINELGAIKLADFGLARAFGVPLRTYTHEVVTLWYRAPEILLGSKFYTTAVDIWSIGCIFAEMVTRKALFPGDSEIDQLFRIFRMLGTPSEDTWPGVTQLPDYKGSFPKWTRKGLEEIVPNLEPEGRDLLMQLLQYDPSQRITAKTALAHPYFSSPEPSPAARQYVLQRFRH

target: CDK2 (UniProt P24941); test: kinase-Nluc reporter destabilization hit call (1 = scored as downregulated) (binary); higher = compound decreases kinase abundance; conditions: K562; 2-18 h

Which “kinase-Nluc reporter destabilization hit call” value does the source give for O=c1cc(O)c2ccccc2o1 [4-Hydroxycoumarin] (10 µM) here?
Its value is inactive: 0.

With CCCCNc1nc(N)c2[nH]c(=O)n(Cc3ccc(C)nc3)c2n1 (10 µM) as the molecule, how does the “kinase-Nluc reporter destabilization hit call” value read?
Its value is inactive: 0.

With CCCS(=O)(=O)Nc1ccc(F)c(-n2cc(-c3cncnc3)c3nc(N(C)C4CCN(CC)CC4)ccc32)c1F (2 µM) as the molecule, how does the “kinase-Nluc reporter destabilization hit call” value read?
The value was inactive: 0.

For C[C@H]1CC[C@]2(NC1)O[C@H]1C[C@H]3[C@@H]4CC[C@H]5C[C@@H](O[C@@H]6O[C@H](CO)[C@H](O[C@@H]7O[C@H](CO)[C@@H](O)[C@H](O[C@@H]8OC[C@@H](O)[C@H](O)[C@H]8O)[C@H]7O[C@@H]7O[C@H](CO)[C@@H](O)[C@H](O)[C@H]7O)[C@H](O)[C@H]6O)CC[C@]5(C)[C@H]4CC[C@]3(C)[C@H]1[C@@H]2C [Tomatine] (2.5 µM), which “kinase-Nluc reporter destabilization hit call” value is on record?
The value was inactive: 0.

Cc1n[nH]cc1-c1cc2nc([C@@H]3CC4CCN3CC4)[nH]c(=O)c2s1 [Simurosertib] (2.5 µM) was tested. Which “kinase-Nluc reporter destabilization hit call” value did it give?
Its value is inactive: 0.

Which “kinase-Nluc reporter destabilization hit call” value does the source give for O=Cc1cn(Cc2ccc(Cl)cc2)c2ccccc12 [Oncrasin-1] (10 µM) here?
The value was inactive: 0.

CC(=O)OC(C)(C)/C=C/C(=O)[C@](C)(O)[C@H]1[C@H](O)C[C@@]2(C)[C@@H]3CC=C4[C@@H](C=C(O)C(=O)C4(C)C)[C@]3(C)C(=O)C[C@]12C [Cucurbitacin E] (2.5 µM) was tested. Which “kinase-Nluc reporter destabilization hit call” value did it give?
The value was inactive: 0.

With C[C@@H]1CC[C@H]2[C@@H](C)C(=O)O[C@@H]3O[C@@]4(C)CC[C@@H]1[C@]32OO4 [Artemisinin] (10 µM) as the molecule, how does the “kinase-Nluc reporter destabilization hit call” value read?
The value was inactive: 0.

Which “kinase-Nluc reporter destabilization hit call” value does the source give for CC(=O)O[C@H]1[C@H]2[C@@H](OC(=O)Cc3ccccc3)[C@@H](C)C[C@]2(OC(C)=O)C(=O)/C(C)=C/[C@@H]2[C@H](CC[C@@]13CO3)C2(C)C [Euphorbiasteroid] (10 µM) here?
Its value is inactive: 0.

Which “kinase-Nluc reporter destabilization hit call” value does the source give for O=c1[nH]c2ccccc2n1C1CCN(CCCC(c2ccc(F)cc2)c2ccc(F)cc2)CC1 [Pimozide] (2.5 µM) here?
The value was inactive: 0.

How did the “kinase-Nluc reporter destabilization hit call” value turn out when CC(=O)Oc1ccc(/C=C/c2cc(OC(C)=O)cc(OC(C)=O)c2)cc1 [Triacetylresveratrol] (10 µM) was run?
Its value is inactive: 0.

Which “kinase-Nluc reporter destabilization hit call” value does the source give for C/C=C(/C)C(=O)O[C@H]1[C@@H]2[C@H](C)C(=O)O[C@@H]2C[C@@H](C)[C@@H]2C=CC(=O)[C@]21C [Brevilin A] (2.5 µM) here?
The value was inactive: 0.

With O=[N+]([O-])/C=C/c1ccc2c(c1)OCO2 (2.5 µM) as the molecule, how does the “kinase-Nluc reporter destabilization hit call” value read?
Its value is inactive: 0.

With O=C(O)c1nn(Cc2ccc(Cl)cc2Cl)c2ccccc12 [Lonidamine] (10 µM) as the molecule, how does the “kinase-Nluc reporter destabilization hit call” value read?
Its value is inactive: 0.

CC(=O)c1c(O)c(C)c(O)c(Cc2c(O)c3c(c(C(=O)/C=C/c4ccccc4)c2O)OC(C)(C)C=C3)c1O [Rottlerin] (2 µM) was tested. Which “kinase-Nluc reporter destabilization hit call” value did it give?
The value was inactive: 0.

How did the “kinase-Nluc reporter destabilization hit call” value turn out when Cn1cc(C2=C(c3cn(C4CCN(Cc5ccccn5)CC4)c4ccccc34)C(=O)NC2=O)c2ccccc21 [Enzastaurin] (10 µM) was run?
The value was inactive: 0.

Cc1ccccc1-n1c(Cn2ncc3c(N)ncnc32)nc2cccc(C)c2c1=O (10 µM) was tested. Which “kinase-Nluc reporter destabilization hit call” value did it give?
Its value is inactive: 0.

With O=c1[nH]c2ccccc2n1C1CCN(Cc2ccc(-c3[nH]c4cc5ncnc5cc4nc3-c3ccccc3)cc2)CC1 [AKT inhibitor VIII] (2.5 µM) as the molecule, how does the “kinase-Nluc reporter destabilization hit call” value read?
Its value is inactive: 0.

For C=CC(=O)Nc1ccc2[nH]c(=O)n(C3CCN(Cc4ccc(-c5nc6cc[nH]c(=O)c6cc5-c5ccccc5)cc4)CC3)c2c1 [Borussertib] (10 µM), which “kinase-Nluc reporter destabilization hit call” value is on record?
The value was inactive: 0.

With C[S+]([O-])/C=C/CCN=C=S (configuration not stated) [Sulforaphene] (10 µM) as the molecule, how does the “kinase-Nluc reporter destabilization hit call” value read?
The value was inactive: 0.

With CC1=C[C@]23C(=O)[C@@H](C=C(CO)[C@@H](O)[C@]2(O)[C@H]1O)[C@H]1[C@@H](C[C@H]3C)C1(C)C [Ingenol] (10 µM) as the molecule, how does the “kinase-Nluc reporter destabilization hit call” value read?
The value was inactive: 0.

Which “kinase-Nluc reporter destabilization hit call” value does the source give for CCCCCCCCCCCCCCCCOC[C@H](COP(=O)([O-])OCC[N+](C)(C)C)OC(C)=O (10 µM) here?
Its value is inactive: 0.

How did the “kinase-Nluc reporter destabilization hit call” value turn out when Cc1ccccc1-n1c(Cn2cnc3c(N)ncnc32)nc2cccc(C)c2c1=O (10 µM) was run?
The value was inactive: 0.

How did the “kinase-Nluc reporter destabilization hit call” value turn out when COc1ccc2c(c1)[nH]c1c(C)nccc12 [Harmine] (10 µM) was run?
Its value is inactive: 0.

For O=C(N[C@@H](COc1ccc2[nH]c(=O)[nH]c2c1)c1ccccc1)c1cccn(Cc2ccc(F)c(F)c2)c1=O (2.5 µM), which “kinase-Nluc reporter destabilization hit call” value is on record?
The value was inactive: 0.

With COc1cc2c(cc1F)C(c1ccccc1Cl)=Nc1c(n[nH]c1C)N2 (0.5 µM) as the molecule, how does the “kinase-Nluc reporter destabilization hit call” value read?
The value was inactive: 0.

With N#CC(C#N)=Cc1ccc(O)c(O)c1 [Tyrphostin 23] (10 µM) as the molecule, how does the “kinase-Nluc reporter destabilization hit call” value read?
Its value is inactive: 0.

How did the “kinase-Nluc reporter destabilization hit call” value turn out when N#CC(C#N)=NNc1cccc(Cl)c1 (2.5 µM) was run?
Its value is inactive: 0.

target: CDK3 (UniProt Q00526); test: as above; conditions: K562; 2-18 h

Which “kinase-Nluc reporter destabilization hit call” value does the source give for O=c1cc(O)c2ccccc2o1 [4-Hydroxycoumarin] (10 µM) here?
Its value is inactive: 0.

CCCCNc1nc(N)c2[nH]c(=O)n(Cc3ccc(C)nc3)c2n1 (10 µM) was tested. Which “kinase-Nluc reporter destabilization hit call” value did it give?
Its value is inactive: 0.

How did the “kinase-Nluc reporter destabilization hit call” value turn out when CCCS(=O)(=O)Nc1ccc(F)c(-n2cc(-c3cncnc3)c3nc(N(C)C4CCN(CC)CC4)ccc32)c1F (2 µM) was run?
The value was inactive: 0.

For C[C@H]1CC[C@]2(NC1)O[C@H]1C[C@H]3[C@@H]4CC[C@H]5C[C@@H](O[C@@H]6O[C@H](CO)[C@H](O[C@@H]7O[C@H](CO)[C@@H](O)[C@H](O[C@@H]8OC[C@@H](O)[C@H](O)[C@H]8O)[C@H]7O[C@@H]7O[C@H](CO)[C@@H](O)[C@H](O)[C@H]7O)[C@H](O)[C@H]6O)CC[C@]5(C)[C@H]4CC[C@]3(C)[C@H]1[C@@H]2C [Tomatine] (2.5 µM), which “kinase-Nluc reporter destabilization hit call” value is on record?
Its value is inactive: 0.

With Cc1n[nH]cc1-c1cc2nc([C@@H]3CC4CCN3CC4)[nH]c(=O)c2s1 [Simurosertib] (2.5 µM) as the molecule, how does the “kinase-Nluc reporter destabilization hit call” value read?
Its value is inactive: 0.

How did the “kinase-Nluc reporter destabilization hit call” value turn out when O=Cc1cn(Cc2ccc(Cl)cc2)c2ccccc12 [Oncrasin-1] (10 µM) was run?
Its value is inactive: 0.

CC(=O)OC(C)(C)/C=C/C(=O)[C@](C)(O)[C@H]1[C@H](O)C[C@@]2(C)[C@@H]3CC=C4[C@@H](C=C(O)C(=O)C4(C)C)[C@]3(C)C(=O)C[C@]12C [Cucurbitacin E] (2.5 µM) was tested. Which “kinase-Nluc reporter destabilization hit call” value did it give?
The value was inactive: 0.

With C[C@@H]1CC[C@H]2[C@@H](C)C(=O)O[C@@H]3O[C@@]4(C)CC[C@@H]1[C@]32OO4 [Artemisinin] (10 µM) as the molecule, how does the “kinase-Nluc reporter destabilization hit call” value read?
The value was inactive: 0.

For COc1ccc2c(c1)/C(=C/c1cnc[nH]1)C(=O)N2 (2.5 µM), which “kinase-Nluc reporter destabilization hit call” value is on record?
Its value is inactive: 0.

CC(=O)O[C@H]1[C@H]2[C@@H](OC(=O)Cc3ccccc3)[C@@H](C)C[C@]2(OC(C)=O)C(=O)/C(C)=C/[C@@H]2[C@H](CC[C@@]13CO3)C2(C)C [Euphorbiasteroid] (10 µM) was tested. Which “kinase-Nluc reporter destabilization hit call” value did it give?
The value was inactive: 0.

For O=c1[nH]c2ccccc2n1C1CCN(CCCC(c2ccc(F)cc2)c2ccc(F)cc2)CC1 [Pimozide] (2.5 µM), which “kinase-Nluc reporter destabilization hit call” value is on record?
Its value is inactive: 0.

For CC(=O)Oc1ccc(/C=C/c2cc(OC(C)=O)cc(OC(C)=O)c2)cc1 [Triacetylresveratrol] (10 µM), which “kinase-Nluc reporter destabilization hit call” value is on record?
The value was inactive: 0.

C/C=C(/C)C(=O)O[C@H]1[C@@H]2[C@H](C)C(=O)O[C@@H]2C[C@@H](C)[C@@H]2C=CC(=O)[C@]21C [Brevilin A] (2.5 µM) was tested. Which “kinase-Nluc reporter destabilization hit call” value did it give?
The value was inactive: 0.

O=[N+]([O-])/C=C/c1ccc2c(c1)OCO2 (2.5 µM) was tested. Which “kinase-Nluc reporter destabilization hit call” value did it give?
Its value is inactive: 0.

For O=C(O)c1nn(Cc2ccc(Cl)cc2Cl)c2ccccc12 [Lonidamine] (10 µM), which “kinase-Nluc reporter destabilization hit call” value is on record?
Its value is inactive: 0.

How did the “kinase-Nluc reporter destabilization hit call” value turn out when CC(=O)c1c(O)c(C)c(O)c(Cc2c(O)c3c(c(C(=O)/C=C/c4ccccc4)c2O)OC(C)(C)C=C3)c1O [Rottlerin] (2 µM) was run?
The value was inactive: 0.

Cn1cc(C2=C(c3cn(C4CCN(Cc5ccccn5)CC4)c4ccccc34)C(=O)NC2=O)c2ccccc21 [Enzastaurin] (10 µM) was tested. Which “kinase-Nluc reporter destabilization hit call” value did it give?
Its value is inactive: 0.

Which “kinase-Nluc reporter destabilization hit call” value does the source give for Cc1ccccc1-n1c(Cn2ncc3c(N)ncnc32)nc2cccc(C)c2c1=O (10 µM) here?
Its value is inactive: 0.

Which “kinase-Nluc reporter destabilization hit call” value does the source give for O=c1[nH]c2ccccc2n1C1CCN(Cc2ccc(-c3[nH]c4cc5ncnc5cc4nc3-c3ccccc3)cc2)CC1 [AKT inhibitor VIII] (2.5 µM) here?
Its value is inactive: 0.

Which “kinase-Nluc reporter destabilization hit call” value does the source give for C=CC(=O)Nc1ccc2[nH]c(=O)n(C3CCN(Cc4ccc(-c5nc6cc[nH]c(=O)c6cc5-c5ccccc5)cc4)CC3)c2c1 [Borussertib] (10 µM) here?
The value was inactive: 0.

Which “kinase-Nluc reporter destabilization hit call” value does the source give for C[S+]([O-])/C=C/CCN=C=S (configuration not stated) [Sulforaphene] (10 µM) here?
The value was inactive: 0.

How did the “kinase-Nluc reporter destabilization hit call” value turn out when CC1=C[C@]23C(=O)[C@@H](C=C(CO)[C@@H](O)[C@]2(O)[C@H]1O)[C@H]1[C@@H](C[C@H]3C)C1(C)C [Ingenol] (10 µM) was run?
Its value is inactive: 0.

How did the “kinase-Nluc reporter destabilization hit call” value turn out when CCCCCCCCCCCCCCCCOC[C@H](COP(=O)([O-])OCC[N+](C)(C)C)OC(C)=O (10 µM) was run?
The value was inactive: 0.

With Cc1ccccc1-n1c(Cn2cnc3c(N)ncnc32)nc2cccc(C)c2c1=O (10 µM) as the molecule, how does the “kinase-Nluc reporter destabilization hit call” value read?
Its value is inactive: 0.

With COc1ccc2c(c1)[nH]c1c(C)nccc12 [Harmine] (10 µM) as the molecule, how does the “kinase-Nluc reporter destabilization hit call” value read?
The value was inactive: 0.

Which “kinase-Nluc reporter destabilization hit call” value does the source give for O=C(N[C@@H](COc1ccc2[nH]c(=O)[nH]c2c1)c1ccccc1)c1cccn(Cc2ccc(F)c(F)c2)c1=O (2.5 µM) here?
The value was inactive: 0.

For COc1cc2c(cc1F)C(c1ccccc1Cl)=Nc1c(n[nH]c1C)N2 (0.5 µM), which “kinase-Nluc reporter destabilization hit call” value is on record?
The value was inactive: 0.

N#CC(C#N)=Cc1ccc(O)c(O)c1 [Tyrphostin 23] (10 µM) was tested. Which “kinase-Nluc reporter destabilization hit call” value did it give?
Its value is inactive: 0.

For N#CC(C#N)=NNc1cccc(Cl)c1 (2.5 µM), which “kinase-Nluc reporter destabilization hit call” value is on record?
The value was inactive: 0.
